Measured values taken from ChEMBL document CHEMBL3044741, “Synthesis of novel biologically active methylene derivatives of sydnones” (Med Chem Res, 2013).

What was measured:
Aspergillus niger = assay: Antifungal activity against Aspergillus niger MTCC 282 at 250 ug/ml after 74 hrs by Kirby-Bauer method; type: functional
Candida albicans = assay: Antifungal activity against Candida albicans MTCC 227 at 250 ug/ml after 74 hrs by Kirby-Bauer method; type: functional

## NYSTATIN
Aspergillus niger
  inhibition zone (IZ): 29 mm
Candida albicans
  inhibition zone (IZ): 22 mm
